Source: patent US9951104B2, “Peptides and methods of using same” (Serpin Pharma, LLC, priority 2012, dated 2018)
Part of at least one peptide drawing is inferred or uncertain, most often the ends.

Tests used:
LPS challenged mice = experiment: Mouse LPS challenge model, serum TNF-alpha readout; format: in vivo; settings: LPS challenged mice treated with alanine scanned SP16 peptides; compared to Dexamethasone (FIG. 10)
Method: In FIG. 10A the mice were treated with alanine scanned SP16 peptide. […] Based on this alanine screen, and without wishing to be bound by a theory, it appears that the C- and N-terminal amino acids contribute to the anti-inflammatory effect of the SP16 peptide. […] Groups of 3 animals were injected with 0.2 mg/kg peptide and subjected to LPS challenge. Serum TNF-alpha levels were determined by ELISA. Several peptides provided the same level of protection as 1 mg/kg Dexamethasone.
The ability of peptide drugs was tested to for their potential for the reduction of inflammatory cytokines following treatment with purified bacterial lipopolysaccharide (LPS)—a major component of bacterial cell wall of Gram negative bacteria. A model of inflammation was used wherein mice were injected with LPS, which induced a transient immune response and a surge of serum inflammatory cytokines. […]
We designed 18 different peptides based on the hAAT sequence (Accession #AAB59371), and had these synthesized using conventional FMOC chemistry. To assess in vivo anti-inflammatory and therapeutic potential, the peptides were tested in a mouse lipopolysaccharide (LPS) challenge model with serum TNFα levels as readout. Using dexamethasone as reference, groups of 3 animals were IP injected with 0.2 mg/kg peptide 2 hours prior to an LPS challenge, and serum TNFα levels determined 30 min after the LPS challenge, by ELISA. […]

[1] = test system: lethal endotoxemia induced by 15 mg/kg LPS; experiment: Lethal endotoxemia study, survival; format: in vivo, mice
db/db mice = experiment: db/db mouse model of type II diabetes; format: in vivo; settings: glucose tolerance test during the last week of the study

CC[C@H](C)[C@H](NC(=O)[C@H](CCSC)NC(=O)[C@H](CC(C)C)NC(=O)[C@H](Cc1ccccc1)NC(=O)[C@@H](NC(=O)[C@H](Cc1ccccc1)NC(=O)[C@@H]1CCCN1C(=O)[C@H](CCCCN)NC(=O)[C@H](CC(N)=O)NC(=O)[C@H](Cc1ccccc1)NC(=O)[C@H](CCCCN)NC(=O)[C@@H](N)C(C)C)C(C)C)C(=O)N[C@@H](CCC(=O)O)C(=O)N[C@@H](CCC(N)=O)C(=O)N[C@@H](CC(N)=O)C(=O)N[C@H](C(=O)N[C@@H](CCCCN)C(=O)O)[C@@H](C)O [SP16]
TNF-alpha levels (LPS challenged mice): reduce TNF-alpha levels more than Dexamethasone
Survival at 72 hours ([1]; 0.6 mg/kg SP16 at T=-2, 0 and 0.5 hours, 15 mg/kg LPS at T=0, mice): 60%
survival in lethal endotoxemia ([1]; peptide at T=-2, 0 and/or 0.5 hours, 15 mg/kg LPS, groups of 10): increases survival
glucose tolerance (db/db mice): improved
